US6416965B2, “Screening methods for presqualene disphosphate analogs” (Brigham and Women's Hospital, priority 1997, dated 2002)
Some of these results come from one statement about several compounds together. At least one structure is not confirmed: it was looked up by name or label, or the drawing left a doubt.

Tested on: neutrophils
Assay: Neutrophil homotypic adhesion (aggregation, light transmittance)
Assay type: cell-based, human
Conditions: neutrophils after addition of compound 1.6 μM and FMLP
Protocol: Neutrophils (10^7/500 μl) were electroporated (1.65 kV/cm, 250 μF, Ω∞, Invitrogen Electroporator VI) at 0° C. in the presence of 10−^9-10−^6 M compound VI, VIII, FDP, FMP, squalene or vehicle (ethanol 0.2%). After electroporation, cells, in cytochrome c (0.7 mg/ml), were exposed (10 minutes, 37° C.) to either cytochalasin b (5 μg/mL) and FMLP (10^−7 M)(a) or PMA ((10^−7 M)(b) and supernatants monitored at […]. Electroporation gave a 49.9% reduction in FMLP-stimulated NADPH oxidase compared to naive cells. Values (FIGS. 4a and 4b) represent the mean±SEM for n≧3, d≧6. For adhesion (FIGS. 4c and 4d), changes in light transmittance were monitored (as in Fiore, S., Nicolaou, K. C., Caulfield, T., Kataoka, H. & Serhan, C. N. Biochem. J. 266, 25-31 (1990), the teachings of which are incorporated herein by reference) after addition of compounds VI, VIII (1.6 μM) or vehicle (0.5 min) and FMLP (0.5-5 μM) (2.5 min). Cell viability remained>99%. Values represent the mean±SEM for n=3, d=9. […]

CC(C)=CCC/C(C)=C/CC/C(C)=C/C1C(COP(=O)(O)OP(=O)(O)O)C1(C)CC/C=C(\C)CCC=C(C)C (stereo in doubt) [Compound VI, presqualene diphosphate]
cell viability: > 99%

CC(C)=CCC/C(C)=C/CC/C(C)=C/C1C(COP(=O)(O)O)C1(C)CC/C=C(\C)CCC=C(C)C (stereo in doubt) [Compound VIII, presqualene monophosphate]
cell viability: > 99%
